Results: US10700298B2, “OLED display panel and electronic device comprising the same” (SHANGHAI TIANMA AM-OLED CO., LTD., priority 2016, dated 2020)

Columns and labels:
[1] = Hole mobility rate of the hole transporting material; assay type: physicochemical; details: hole transporting layer material
[2] = Crosstalk test of OLED display panel (LGreen/LBlue); details: dark room, B screen, intensity ratio of green light of adjacent pixels at blue light intensity 0.1 Cd/m^2
Method: Performance tests of the OLED display panels in the Examples and Comparative Examples were carried out.
(2) Crosstalk test method: the program being transferred to the B screen in a dark room, testing the intensity ratio of the green light of adjacent pixels when the blue light intensity was 0.1 Cd/m^2, LGreen/LBlue;

Mask cleaning effect = details: time for materials on the MASK to be completely cleaned, ultrasonic 40 kHz, 25° C.
Method: (3) Mask cleaning effect:
the time required for all the materials on the MASK of the red light of the hole transporting layer 203 to be completely cleaned at a fixed ultrasonic frequency of 40 kHz and at a temperature of 25° C.

SMILES | hole mobility rate [1] | LGreen/LBlue [2] [%] | Mask cleaning time (Mask cleaning effect) [s]
c1ccc(-c2ccc(N(c3ccc(-c4ccccc4)cc3)c3ccc(-c4ccc(N(c5ccc(-c6ccccc6)cc5)c5ccc(-c6ccccc6)cc5)c5c4CCCC5)cc3)cc2)cc1 [Comparative Example 3, reference compound] | 7×10^−5 cm^2/V·S | 1.0 | 58
Cc1ccc(-c2ccc(N(c3ccc(-c4cccc(C)c4)cc3)c3ccc(-c4ccc(N(c5ccc(-c6ccccc6)cc5)c5ccc(-c6ccc(C)cc6)cc5)c5c4CCCC5)cc3)cc2)cc1 [Example 9] | 4×10^−4 cm^2/V·S | 1.8 | 30
c1ccc(-c2ccc(N(c3ccc(-c4ccccc4)cc3)c3ccc(-c4ccc(N(c5ccc(-c6ccccc6)cc5)c5ccc(-c6ccccc6)cc5)cc4)cc3)cc2)cc1 [Comparative Example 1, reference compound] | 3×10^−4 cm^2/V·S | 1.5 | 80
Cc1cc(N(c2ccc(-c3ccccc3)cc2)c2ccc(-c3cccc4c3CCCC4)cc2)ccc1-c1ccc(N(c2ccc(-c3ccccc3)cc2)c2ccc(-c3cccc4c3CCCC4)cc2)cc1 [Example 11] | 1.8×10^−4 cm^2/V·S | 1.3 | 25
Cc1cc(N(c2ccc3c(c2)C(C)(C)c2ccccc2-3)c2ccc3c(c2)C(C)(C)c2ccccc2-3)ccc1-c1ccc(N(c2ccc3c(c2)C(C)(C)c2ccccc2-3)c2ccc3c(c2)C(C)(C)c2ccccc2-3)cc1 [Example 8] | 4×10^−4 cm^2/V·S | 2.7 | 25
CC1(C)c2cc(N(c3ccc(-c4ccccc4)cc3)c3ccc(-c4ccccc4)cc3)ccc2-c2ccc(N(c3ccc(-c4ccccc4)cc3)c3ccc(-c4ccccc4)cc3)cc21 [Comparative Example 2, reference compound] | 3.2×10^−4 cm^2/V·S | 1.8 | 60
Cc1cc(-c2ccc(N(c3ccc(-c4ccccc4)cc3)c3ccc4c(c3)C(C)(C)c3ccccc3-4)cc2)cc(C)c1N(c1ccc(-c2ccccc2)cc1)c1ccc2c(c1)C(C)(C)c1ccccc1-2 [Example 5] | 3.5×10^−4 cm^2/V·S | 1.9 | 35
Cc1ccccc1-c1ccc(N(c2ccc(-c3ccccc3)cc2)c2ccc(-c3ccc(N(c4ccc(-c5ccccc5)cc4)c4ccc(-c5ccccc5C)c5c4CCCC5)c4c3CCCC4)cc2)c2c1CCCC2 [Example 12] | 1.9×10^−4 cm^2/V·S | 1.3 | 23
CC(C)c1ccc(-c2ccc(N(c3ccc(-c4ccccc4)cc3)c3ccc(-c4ccc(N(c5ccc(-c6ccccc6)cc5)c5ccc(-c6ccc(C(C)C)cc6)cc5)c(C(C)C)c4)cc3)cc2)cc1 [Example 3] | 2.5×10^−4 cm^2/V·S | 1.7 | 20
Cc1cccc(-c2ccc(N(c3ccc(-c4cccc5c4CCCC5)cc3)c3ccc(-c4ccc(N(c5ccc(-c6cccc(C)c6)cc5)c5ccc(-c6cccc7c6CCCC7)cc5)c5c4CCCC5)cc3)cc2)c1 [Example 10] | 2.1×10^−4 cm^2/V·S | 2.1 | 25
Cc1cccc(-c2ccc(N(c3ccc(-c4cccc(C)c4)cc3)c3ccc4c(c3)C(C)(C)c3cc(N(c5ccc(-c6cccc(C)c6)cc5)c5ccc(-c6cccc(C)c6)cc5)ccc3-4)cc2)c1 [Example 6] | 3×10^−4 cm^2/V·S | 1.5 | 25
Cc1cc(N(c2ccc(-c3ccccc3)cc2)c2ccc(-c3ccc(C(C)C)cc3)cc2)ccc1-c1ccc(N(c2ccc(-c3ccccc3)cc2)c2ccc(-c3ccc(C(C)C)cc3)cc2)cc1 [Example 4] | 2.4×10^−4 cm^2/V·S | 1.7 | 20
c1ccc(-c2ccc(N(c3ccc(-c4ccccc4)cc3)c3ccc(N(c4ccc(-c5ccccc5)cc4)c4ccc(-c5ccccc5)cc4)cc3)cc2)cc1 [Comparative Example 4, reference compound] | 2×10^−4 cm^2/V·S | 1.7 | 65
Cc1cccc(C)c1-c1ccc(N(c2ccc3c(c2)C(C)(C)c2ccccc2-3)c2ccc3c(c2)C(C)(C)c2cc(N(c4ccc(-c5c(C)cccc5C)cc4)c4ccc5c(c4)C(C)(C)c4ccccc4-5)ccc2-3)cc1 [Example 7] | 5×10^−4 cm^2/V·S | 3.1 | 25
